Source: patent publication US20090203577A1 (EXELIXIS, INC., priority 2005, published 2009)
Structures were worked out from names or drawings and are uncertain.

Chains of the proteins cited; added tags and fusions are not shown. Residues count along the entry.
UniProt Q96RI1, 1-472 isoform 2: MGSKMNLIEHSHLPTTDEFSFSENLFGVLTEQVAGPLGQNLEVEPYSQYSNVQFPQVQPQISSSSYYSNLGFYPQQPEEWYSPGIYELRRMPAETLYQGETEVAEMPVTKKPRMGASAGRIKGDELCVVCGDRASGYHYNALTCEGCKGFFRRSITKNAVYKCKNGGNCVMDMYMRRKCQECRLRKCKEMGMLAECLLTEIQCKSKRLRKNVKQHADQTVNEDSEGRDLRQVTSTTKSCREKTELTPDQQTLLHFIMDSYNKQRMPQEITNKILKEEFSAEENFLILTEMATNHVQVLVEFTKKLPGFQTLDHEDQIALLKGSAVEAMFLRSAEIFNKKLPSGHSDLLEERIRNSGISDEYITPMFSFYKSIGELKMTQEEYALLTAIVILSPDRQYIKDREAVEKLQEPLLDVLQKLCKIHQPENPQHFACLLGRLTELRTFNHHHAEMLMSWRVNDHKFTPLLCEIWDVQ
UniProt P19793, whole entry partner: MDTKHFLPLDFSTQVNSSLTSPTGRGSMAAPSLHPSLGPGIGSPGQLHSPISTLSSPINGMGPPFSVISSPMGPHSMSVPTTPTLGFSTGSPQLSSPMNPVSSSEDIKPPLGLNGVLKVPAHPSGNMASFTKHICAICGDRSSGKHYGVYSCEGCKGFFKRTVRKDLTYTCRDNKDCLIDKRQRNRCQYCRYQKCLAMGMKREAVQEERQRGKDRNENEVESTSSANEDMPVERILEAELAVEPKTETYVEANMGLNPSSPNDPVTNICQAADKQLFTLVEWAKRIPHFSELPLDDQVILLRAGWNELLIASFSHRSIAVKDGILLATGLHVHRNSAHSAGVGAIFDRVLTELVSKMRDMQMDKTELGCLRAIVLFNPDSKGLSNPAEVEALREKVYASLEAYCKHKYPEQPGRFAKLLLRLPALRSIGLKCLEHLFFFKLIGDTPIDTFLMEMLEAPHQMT

Target: human farnesoid X receptor (Homo sapiens, UniProt Q96RI1)
Experiment: FXR in vitro assays (farnesoid X receptor/ECREx7 co-transfection assay, TR-FRET assay), Table I
Format: cell-based
Conditions: for EC50: read-out: EC50 μM, agonist activity, one or more of the in vitro assays; for % Efficacy: relative to maximum response of chenodeoxycholic acid (CDCA)

SMILES | EC50 [µM] | % Efficacy
CC1(C)CN(C(=O)c2ccc(F)c(F)c2)CC(C(=O)NCCC(=O)O)c2[nH]c3ccccc3c21 (centres unmarked) | 1 to 10 | D (D=40-60%)
CC(C)OC(=O)C1=CN(C(=O)c2ccc(F)c(CN3CCCCC3)c2)CC(C)(C)c2c1[nH]c1ccccc21 | 0.1 to 1 | A (A=>100%)
COc1ccc(COc2cc(C(=O)N3C=C(C(=O)OC(C)C)c4[nH]c5ccccc5c4C(C)(C)C3)cc(F)c2F)cc1 | 0.1 to 1 | A (A=>100%)
CC(C)OC(=O)C1=CN(C(=O)c2cc(CN3CCCCC3)ccc2F)CC(C)(C)c2c1[nH]c1ccccc21 | 0.1 to 1 | A (A=>100%)
